Chains of the proteins cited; added tags and fusions are not shown. Lines headed by an entry give the natural chain unless they say otherwise; changes in a name come on top. Residues count along the entry.
UniProt P08034: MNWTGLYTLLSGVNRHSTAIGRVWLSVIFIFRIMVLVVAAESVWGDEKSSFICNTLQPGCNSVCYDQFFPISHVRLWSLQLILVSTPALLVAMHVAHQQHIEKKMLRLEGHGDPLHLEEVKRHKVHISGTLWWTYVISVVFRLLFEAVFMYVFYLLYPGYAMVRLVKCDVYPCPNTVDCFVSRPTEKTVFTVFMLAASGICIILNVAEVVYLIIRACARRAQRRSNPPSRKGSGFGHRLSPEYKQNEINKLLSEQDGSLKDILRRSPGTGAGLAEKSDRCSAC
UniProt P27824, residues 21-592: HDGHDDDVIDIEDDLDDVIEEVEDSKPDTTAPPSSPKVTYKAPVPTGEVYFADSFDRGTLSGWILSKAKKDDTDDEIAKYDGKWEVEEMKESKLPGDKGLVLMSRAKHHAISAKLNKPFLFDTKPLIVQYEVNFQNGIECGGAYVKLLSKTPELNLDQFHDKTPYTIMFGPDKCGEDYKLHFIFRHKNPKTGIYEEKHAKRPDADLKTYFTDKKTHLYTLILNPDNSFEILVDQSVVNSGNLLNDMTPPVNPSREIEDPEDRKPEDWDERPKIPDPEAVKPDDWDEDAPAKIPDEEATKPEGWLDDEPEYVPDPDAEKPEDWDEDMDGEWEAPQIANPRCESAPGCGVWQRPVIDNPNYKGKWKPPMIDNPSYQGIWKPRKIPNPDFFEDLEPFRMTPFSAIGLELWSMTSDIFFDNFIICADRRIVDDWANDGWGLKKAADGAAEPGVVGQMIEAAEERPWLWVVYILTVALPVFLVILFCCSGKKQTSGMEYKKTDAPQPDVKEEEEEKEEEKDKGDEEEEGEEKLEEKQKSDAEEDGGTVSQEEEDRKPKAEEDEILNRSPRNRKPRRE
UniProt Q5UCC4, residues 26-262: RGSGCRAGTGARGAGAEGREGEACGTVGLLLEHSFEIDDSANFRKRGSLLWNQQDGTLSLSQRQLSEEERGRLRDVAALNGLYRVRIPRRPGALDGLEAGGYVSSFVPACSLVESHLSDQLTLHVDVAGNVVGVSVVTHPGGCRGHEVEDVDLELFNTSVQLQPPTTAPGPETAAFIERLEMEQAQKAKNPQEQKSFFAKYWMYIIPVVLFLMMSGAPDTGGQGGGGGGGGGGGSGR
UniProt Q9UBS4, residues 23-358: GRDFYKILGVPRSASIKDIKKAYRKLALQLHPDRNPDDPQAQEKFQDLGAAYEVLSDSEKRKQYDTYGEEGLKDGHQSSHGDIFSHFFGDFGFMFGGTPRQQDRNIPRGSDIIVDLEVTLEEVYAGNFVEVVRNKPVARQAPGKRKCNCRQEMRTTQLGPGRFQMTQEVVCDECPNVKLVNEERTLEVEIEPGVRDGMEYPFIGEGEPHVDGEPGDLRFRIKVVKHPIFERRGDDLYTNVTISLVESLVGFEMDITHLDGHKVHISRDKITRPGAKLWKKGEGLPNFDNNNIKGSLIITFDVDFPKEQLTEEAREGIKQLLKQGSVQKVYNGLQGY

According to paper PMC6368539:

How the values were obtained:
[1] = biological target: connexin 32 wild type, FLAG-tagged (human) (UniProt P08034); test: affinity purification with mass spectrometry; FLAG-tagged Cx32 immunoprecipitated from transfected HEK293T cells in 1% digitonin buffer with a rabbit monoclonal anti-FLAG antibody; rabbit IgG isotype control; three replicates; label-free quantification
[2] = biological target: connexin 32 L90H, FLAG-tagged (human) (UniProt P08034); test: as above

binding [1] | binding [2] | Substance
binds | binds | Calnexin (from UniProt P27824 21-592)
binds | binds | ER-membrane protein complex (EMC) subunit 10 (from UniProt Q5UCC4 26-262)
binds | – | ERdj3 (DNAJB11) (from UniProt Q9UBS4 23-358)

No constants are given. Whether binding was seen depends on the method and setting. In cells and extracts the contact can be indirect. A yes stands for co-enrichment or nearness to the bait. Other partners may have been found.
